In article PMC4164675:
No signal at the amounts used counts as a negative. The exact form of at least one protein or probe is not confirmed.

Sequences of proteins named here, by UniProt entry; tags and fusion partners are left off. A change or cut given only in a name is not applied to a line headed by its entry.
UniProt P26651: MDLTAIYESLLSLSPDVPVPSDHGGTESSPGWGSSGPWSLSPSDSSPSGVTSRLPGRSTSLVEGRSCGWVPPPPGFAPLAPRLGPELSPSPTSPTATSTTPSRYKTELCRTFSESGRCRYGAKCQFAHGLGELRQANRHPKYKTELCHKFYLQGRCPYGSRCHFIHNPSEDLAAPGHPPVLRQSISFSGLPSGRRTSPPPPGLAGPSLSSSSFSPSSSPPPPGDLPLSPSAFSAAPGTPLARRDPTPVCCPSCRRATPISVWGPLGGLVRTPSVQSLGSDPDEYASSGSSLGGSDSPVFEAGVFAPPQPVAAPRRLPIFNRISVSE

Biological target: TTP (tristetraprolin) (Homo sapiens) (UniProt P26651)
Experiment: EMSA
Settings: 50 and 100 ng TTP in 20 ul, 2 mg/ml tRNA, 10 mM HEPES pH 7.3, 40 mM KCl, 3 mM MgCl2, 2 mM DTT, 5% glycerol, room temperature, 30 min, 6% native PAGE, recombinant protein, residues 1-326, protein details: His-tag cleaved with AcTEV, label: 3' biotin, probe letters rebuilt from the primers and the genome, part of a longer molecule

| Sequence | binding result |
| --- | --- |
| AGGAAACAGUCAUUUGCGCACAACUUUAAAAGUCUGCAUUACAUUCCUCGAUAAUGUUGUGGUUUGUUGCCGUUGCCAAGAAUUGAAAACAAAAAGUUUAAAAAAAAUAAUAAUAAAUUGCAUGCUGCUUUAAUUGUGAAUUGAUAAUAAACUGUCCCUCUUUCAGAAAACAGAUU [U2 RNA (distal fragment of BDNF-S 3'UTR)] | no binding |
| UGGAUUUAUGUUGUAUAGAUUAUAUUGAGACAAAAUUAUCUAUUUGUAUAUAUACAUAACAGGGUAAAUUAUUCAGUUAAGAAAAAAUAAUUUUAUGAACUGCAUGUAUAAAUGAAGUUUAUACAGUACAGUGGUUCUACAAUCUAUUUAUUGGACAUAUCCAUGACCU [U1 RNA (5' proximal fragment of BDNF 3'UTR)] | binds |
